The results in this text go back to doi:10.1101/2022.11.01.514535.

In test [1] the target is T1, FBXL4-Flag (F-box/LRR-repeat protein 4) (UniProt Q9UKA2).
T1 sequence: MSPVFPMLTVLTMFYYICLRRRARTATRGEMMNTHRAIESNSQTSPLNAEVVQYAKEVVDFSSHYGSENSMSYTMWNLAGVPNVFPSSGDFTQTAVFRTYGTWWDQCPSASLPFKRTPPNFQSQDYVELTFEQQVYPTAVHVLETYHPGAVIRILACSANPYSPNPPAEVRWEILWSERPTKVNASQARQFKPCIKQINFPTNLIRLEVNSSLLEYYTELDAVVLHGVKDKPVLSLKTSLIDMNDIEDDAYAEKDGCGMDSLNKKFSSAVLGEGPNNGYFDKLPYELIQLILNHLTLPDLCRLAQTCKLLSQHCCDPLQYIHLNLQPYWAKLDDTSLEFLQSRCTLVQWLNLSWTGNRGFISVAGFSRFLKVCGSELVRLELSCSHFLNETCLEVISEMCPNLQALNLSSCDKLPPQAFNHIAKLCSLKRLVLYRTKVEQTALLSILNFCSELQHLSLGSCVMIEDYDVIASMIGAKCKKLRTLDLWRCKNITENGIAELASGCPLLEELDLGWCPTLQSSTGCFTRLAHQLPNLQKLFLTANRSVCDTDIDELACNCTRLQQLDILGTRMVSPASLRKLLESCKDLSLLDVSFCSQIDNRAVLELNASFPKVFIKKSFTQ
The test can be described thus: co-IP.

The target in the next test is T2, FBXL3 (UniProt Q9UKT7).
T2 sequence: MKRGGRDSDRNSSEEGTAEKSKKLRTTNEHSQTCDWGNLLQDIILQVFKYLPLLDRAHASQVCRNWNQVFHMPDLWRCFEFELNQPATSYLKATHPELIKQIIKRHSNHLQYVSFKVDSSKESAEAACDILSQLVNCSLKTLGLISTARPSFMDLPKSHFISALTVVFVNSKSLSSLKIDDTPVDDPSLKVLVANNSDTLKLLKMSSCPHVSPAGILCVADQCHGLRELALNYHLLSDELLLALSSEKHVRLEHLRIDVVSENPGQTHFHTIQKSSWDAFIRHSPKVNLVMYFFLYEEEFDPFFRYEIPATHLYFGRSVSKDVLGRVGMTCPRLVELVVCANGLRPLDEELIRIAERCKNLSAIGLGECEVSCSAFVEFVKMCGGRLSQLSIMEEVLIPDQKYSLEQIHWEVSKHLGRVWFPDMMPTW
Description: co-IP.

Results are given in words; binding and its absence hold for the method and conditions named. In cells and extracts the contact can be indirect. For some assays here: Tags and fused reporters may be left off the sequences shown.

“mitochondrial ribosomal protein L45 (MRPL45), endogenous (human (endogenous in HEK and HeLa))”: the binding entry (in test [1]; with FBXL3) was “no binding” each time.
